This is one part of the list. The main result of the screen is listed elsewhere. These columns were measured beside it and carry no call. Compounds called inactive in the main read-out are mostly missing here. The note in brackets gives the kind of curve behind each potency; many fits are weak.
Experiment: qHTS Assay for Lipid Storage Modulators in Drosophila S3 Cells;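 as to cell number change: cells counted by Cell Tracker Red CMTPX staining in the red channel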
Details: BODIPY lipid droplet fluorescence, 18-24 h; for cell number change: measured here: cell count max response, cells fed with added oleic acid
Procedure, shortened: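 Drosophila S3 cells got compounds at several concentrations plus oleic acid (400 uM solution). Laser-scanning cytometry with 488 nm excitation read lipid droplets at 500-530 nm and cells at 575-640 nm. Percent activity was relative to 20 uM Triacsin C.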

[1] = measured here: lipid fluorescence (Fed channel) AC50, cells fed with added oleic acid
[2] = measured here: cell number channel AC50, cells fed with added oleic acid

| SMILES | cell number change [%] | AC50 [1] | AC50 [2] |
| --- | --- | --- | --- |
| C/C(=N\Nc1nc2ccccc2[nH]1)c1ccccn1 | 2.63 | – | – |
| CN(c1cccc(NC(=O)CN(c2cccc(Cl)c2)S(=O)(=O)c2ccccc2)c1)S(C)(=O)=O | -21.6 | 23.1 µM [falling, single point] | – |
| COC(=O)CNC(=O)C1CCN(c2nc(C)cc(C)n2)CC1 | 15.4 | 25.9 µM [rising, single point] | – |
| COc1ccc(N2CCN(S(=O)(=O)CCNC(=O)CCCc3ccccc3)CC2)cc1 | 19.9 | – | – |
| O=C(NCc1ccco1)Oc1ccccc1 | -8.36 | 0.58 µM [falling, single point] | 6.51 µM [rising, single point] |
| COc1ccc(Cl)cc1NC(=O)c1nnn(CC(=O)Nc2ccc(OC)c(OC)c2)c1N | 11.5 | 0.58 µM [rising, single point] | – |
| COc1ccc(C(CNC(=O)c2oc3ccc(OC)cc3c2C)N2CCCC2)cc1 (stereo not drawn) | – | 0.184 µM [rising, full curve, poor fit] | 3.26 µM [falling, single point] |
| Cc1cc(-n2c(C)cc(C(=S)N3CCOCC3)c2C)ccc1Br | 26.6 | 7.31 µM [rising, partial curve, poor fit] | – |
| Cc1nn(-c2ccc(F)cc2)c2c1cc(C#N)c1nc3ccccc3n12 | – | 0.116 µM [rising, full curve, poor fit] | 0.103 µM [rising, full curve, poor fit] |
| CC(=O)Nc1cc(ON=C(C)C)cc([N+](=O)[O-])c1 | 10.7 | 18.4 µM [rising, single point] | – |
| O=C(Cc1c(O)c2ccccc2[nH]c1=O)NC1CCCCCCC1 | 3.25 | 0.731 µM [falling, single point] | – |
| Nc1ccccc1-c1nc2ccccc2[nH]1 | – | 0.58 µM [rising, single point] | – |
| COCCCNC(=O)Cc1ccccc1OC | -6.03 | 0.146 µM [falling, full curve, poor fit] | – |
| O=C(NCCN1CCOCC1)c1cn(CCc2ccccc2)nn1 | 2.65 | – | – |
| O=C(COC(=O)[C@H](Cc1ccccc1)NC(=O)c1cccs1)NC1CCCCC1 | 16.6 | 10.3 µM [rising, partial curve, poor fit] | – |
| CCCCN1C(=O)C2C(c3ccc(OC)cc3O)NC(CC(C)C)(C(=O)O)C2C1=O (stereo not drawn) | 1.03 | – | – |
| NCCCC[C@@H]1NC(=O)c2cc([N+](=O)[O-])cc(I)c2SC[C@@H](C(N)=O)NC(=O)[C@H](Cc2ccc(O)cc2)NC1=O | – | 0.058 µM [falling, full curve, poor fit] | – |
| CC(NC(=O)CN1CCN(CC(=O)Nc2ccccc2Cl)CC1)c1ccc(Br)cc1 (stereo not drawn) | 6.89 | – | – |
| Cc1ccccc1-c1noc(CNC(=O)COc2ccccc2)n1 | 10.1 | 0.651 µM [rising, single point] | – |

Some of the entries above in a different format.
SMILES	cell number change [%]	AC50 [1]	AC50 [2]
Cc1nn(-c2ccc(F)cc2)c2c1cc(C#N)c1nc3ccccc3n12	–	0.116 µM [rising, full curve, poor fit]	0.103 µM [rising, full curve, poor fit]
CC(=O)Nc1cc(ON=C(C)C)cc([N+](=O)[O-])c1	10.7	18.4 µM [rising, single point]	–
O=C(Cc1c(O)c2ccccc2[nH]c1=O)NC1CCCCCCC1	3.25	0.731 µM [falling, single point]	–
Nc1ccccc1-c1nc2ccccc2[nH]1	–	0.58 µM [rising, single point]	–

Later entries:

| SMILES | cell number change [%] | AC50 [1] | AC50 [2] |
| --- | --- | --- | --- |
| O=C(O)C[C@]1(C(=O)Nc2ccc(F)cc2)CC(/C=C/c2ccccc2)=NO1 | 44.4 | – | 29.1 µM [rising, single point] |
| Cc1ccc(-c2nc3c(c(=O)[nH]c(=O)n3Cc3ccccc3)n2C)o1 | -29.2 | – | – |
| COc1cccc(CNC(=O)C(=O)NCCC2CCCCN2S(=O)(=O)c2cccs2)c1 (stereo not drawn) | 18 | 13 µM [rising, partial curve] | – |
| Cc1ccccc1-n1c(SCc2cc(=O)n3ccccc3n2)nc2[nH]ncc2c1=O | 3.71 | 0.13 µM [falling, full curve, poor fit] | – |
| Cc1ccc(OCC(O)Cn2c(=N)n(Cc3ccccc3)c3ccccc32)cc1 (stereo not drawn) | -87 | 29.1 µM [falling, single point] | 29.1 µM [falling, single point] |
| CCOC(=O)N1CCC(n2c(=S)[nH]c3cc(OCC)c(OCC)cc3c2=O)CC1 | – | – | 2.31 µM [rising, partial curve] |
| COc1ccc(CCC(=O)NNC(=O)c2ccc(OC)cc2)cc1 | 6.67 | – | 0.00651 µM [rising, full curve, poor fit] |
| COc1ccc(NC(=O)CCCCCN2C(=O)CCC2=O)cc1Cl | 12.9 | 4.11 µM [rising, single point] | 2.59 µM [rising, single point] |
| CCOc1ccc(-n2nnnc2SCC(=O)c2ccccc2)cc1 | 4.64 | 0.00517 µM [falling, full curve, poor fit] | – |
| N#Cc1ccc(OCc2nnc3n2CCCCC3)cc1 | – | 6.51 µM [falling, single point] | 2.91 µM [falling, single point] |
| O=C(COC(=O)c1cc(=O)c2ccccc2o1)NC1CCCCC1 | -17.9 | 6.51 µM [falling, partial curve, poor fit] | 0.651 µM [falling, partial curve, poor fit] |
| COc1ccc2[nH]c(CN3CCN(CC=C(C)C)C(CCO)C3)c(C)c2c1 (stereo not drawn) | -24.5 | – | – |
| Cc1cc(C)c[n+](-c2[nH]c(=O)sc2/C=N/N=C(\N)[S-])c1 | -26.9 | 0.116 µM [falling, full curve, poor fit] | – |
| Cc1cc2c(cc1C)NC(c1c(C)n(C)n(-c3ccccc3)c1=O)C1=C(CC(C)(C)CC1=O)N2 (stereo not drawn) | – | 5.17 µM [rising, partial curve, poor fit] | 6.51 µM [rising, single point] |
| CC(C)(C)NC(=O)CSc1nc(Cc2ccccc2)nc2ccccc12 | -18.3 | 6.51 µM [falling, partial curve] | – |
| CC(=O)Nc1ccc(NS(=O)(=O)c2ccc(OC(C)C(=O)N3CCOCC3)cc2)cc1 (stereo not drawn) | -25.1 | 1.84 µM [falling, partial curve] | 3.66 µM [falling, full curve, poor fit] |
| COc1ccc(-c2c(-c3cc(OC)cc(OC)c3)n(C)c3ccc(-c4cc(F)cc(OC)c4)cc23)cc1 | 0.791 | – | – |
| COc1ccc(-c2cc(C(=O)OCC(=O)NC(C)C)c3ccccc3n2)cc1 | 59.2 | 2.91 µM [rising, full curve, poor fit] | 1.64 µM [rising, full curve] |
| CC(C)(C)C(=O)N1CCN(c2nc3ccccc3s2)CC1 | 6.92 | 20.6 µM [rising, partial curve] | – |

| SMILES | cell number change [%] | AC50 [1] | AC50 [2] |
| --- | --- | --- | --- |
| Cc1cccc(NS(=O)(=O)c2cccc(C(=O)N3CC(C)OC(C)C3)c2)c1 (stereo not drawn) | 148 | 29.1 µM [rising, single point] | 29.1 µM [rising, single point] |
| CC(C)(C)NS(=O)(=O)c1cccc(S(=O)(=O)c2cccc(S(=O)(=O)NC(C)(C)C)c2)c1 | -13.6 | 3.26 µM [rising, single point] | – |
| Cc1nc2ccc(N)cc2s1 | 22.4 | 14.6 µM [falling, partial curve] | – |
| CCN(C(=O)C(=O)c1c[nH]c2ccccc12)c1ccccc1 | 27 | 29.1 µM [rising, single point] | 2.31 µM [rising, full curve, poor fit] |
| CC1=CC(C2CC(=O)N(c3ccccc3C)C2=O)CC2C(=O)N(c3ccccc3C)C(=O)C12 (stereo not drawn) | – | – | 6.51 µM [rising, single point] |
| O=c1cc(-c2ccccc2)nc(SCc2ccc(F)cc2)[nH]1 | -0.576 | – | – |
| CCc1[nH]nc2c1C(c1cccc(OC(=O)N3CCOCC3)c1)C(C#N)=C(N)O2 (stereo not drawn) | – | – | 3.66 µM [falling, partial curve, poor fit] |
| CCc1nnc(NS(=O)(=O)c2ccc(NC(=O)CCC(=O)O)cc2)s1 | 8.77 | 29.1 µM [rising, partial curve, poor fit] | – |
| CCOc1cc(N2CCOCC2)c(OCC)cc1NC(=O)COC(=O)COc1ccc(C#N)cc1 | 12.9 | 0.0517 µM [rising, full curve, poor fit] | – |
| O=C(c1cccc(S(=O)(=O)Nc2ccc(Br)cc2)c1)N1CCCC1 | -43.2 | 23.1 µM [falling, single point] | 7.31 µM [falling, partial curve] |
| CCOC(=O)Cc1cc(=O)n2[nH]c(-c3ccc(C)cc3)cc2n1 | – | 0.651 µM [falling, full curve] | 0.116 µM [falling, full curve, poor fit] |
| O=C(O/N=C(\c1ccccc1)c1ccccn1)c1cccc2ccccc12 | -46.5 | 29.1 µM [falling, partial curve, poor fit] | 0.291 µM [falling, full curve] |
| COc1ccc([C@H]2CC(=O)C=C(c3cccc(F)c3OC)C2)cc1 | -5.54 | 0.517 µM [rising, full curve, poor fit] | – |
| COc1ccc(-c2cn(-c3ccc(SC(F)F)cc3)c3[n+]2CCC3)cc1OC | 6.12 | 0.00461 µM [rising, full curve, poor fit] | – |
| CC1=NN(C(=O)c2cccc(Cn3nc(C)c([N+](=O)[O-])c3C)c2)C(O)(C(F)(F)F)C1 (stereo not drawn) | – | – | 0.731 µM [rising, single point] |
| CN(C)/C=C(\C#N)C(=O)N/N=C(\CC(=O)C(F)(F)F)c1ccco1 | 13.6 | 0.731 µM [falling, single point] | – |
| C=CCn1c(O)c2ccc(C(=O)N=NC(=O)COc3ccc(OC)cc3)cc2c1O | -21 | 29.1 µM [rising, single point] | – |
| Cc1cc(C)c(C#N)c(SCS(=O)Cc2ccc(Cl)cc2)n1 (stereo not drawn) | -12.6 | 0.651 µM [rising, partial curve, poor fit] | 0.517 µM [rising, partial curve, poor fit] |
